Data taken from the supplement of paper PMC8728848.
Some of the results follow.

Key:
Assay in all cases: glycan array binding signal (z-score within array); higher = stronger binding
Conditions in all cases: glycan notation: IUPAC condensed, linker removed
Fuc(a1-2)Gal = molecular target: Fuc(a1-2)Gal
In short: (§1)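 Glycan array data came from 3228 arrays in the Consortium for Functional Glycomics database, and only arrays with an available protein sequence were kept. Glycan names were put into IUPAC-condensed notation, and columns mapping to the same glycan were averaged. The binding signal is a within-array Z-score, averaged across arrays of one protein sequence run at different concentrations or buffers and across linkers. A negative Z-score can be read as non-binding.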

Fuc(a1-2)Gal(b1-3)GalNAc = molecular target: Fuc(a1-2)Gal(b1-3)GalNAc
In short: as §1

[1] = molecular target: Fuc(a1-2)Gal(b1-3)GalNAc(a1-3)[Fuc(a1-2)]Gal(b1-4)Glc
In short: as §1

[2] = molecular target: Fuc(a1-2)Gal(b1-3)GalNAc(a1-3)[Fuc(a1-2)]Gal(b1-4)GlcNAc
In short: as §1

[3] = molecular target: Fuc(a1-2)Gal(b1-3)GalNAc(b1-3)Gal
In short: as §1

[4] = molecular target: Fuc(a1-2)Gal(b1-3)GalNAc(b1-3)Gal(a1-4)Gal(b1-4)Glc
In short: as §1

[5] = molecular target: Fuc(a1-2)Gal(b1-3)GalNAc(b1-4)[Neu5Ac(a2-3)]Gal(b1-4)Glc
In short: as §1

Fuc(a1-2)Gal(b1-3)GlcNAc = molecular target: Fuc(a1-2)Gal(b1-3)GlcNAc
In short: as §1

[6] = molecular target: Fuc(a1-2)Gal(b1-3)GlcNAc(b1-2)Man(a1-3)[Fuc(a1-2)Gal(b1-3)GlcNAc(b1-2)Man(a1-6)]Man(b1-4)GlcNAc(b1-4)GlcNAc
In short: as §1

[7] = molecular target: Fuc(a1-2)Gal(b1-3)GlcNAc(b1-2)Man(a1-3)[Fuc(a1-2)Gal(b1-3)GlcNAc(b1-2)Man(a1-6)]Man(b1-4)GlcNAc(b1-4)[Fuc(a1-6)]GlcNAc
In short: as §1

[8] = molecular target: Fuc(a1-2)Gal(b1-3)GlcNAc(b1-3)Gal(b1-4)Glc
In short: as §1

[9] = molecular target: Fuc(a1-2)Gal(b1-3)GlcNAc(b1-3)GalNAc
In short: as §1

[10] = molecular target: Fuc(a1-2)Gal(b1-3)GlcNAc(b1-3)[Fuc(a1-2)Gal(b1-3)GlcNAc(b1-6)]GalNAc
In short: as §1

[11] = molecular target: Fuc(a1-2)Gal(b1-3)GlcNAc(b1-3)[Gal(b1-4)GlcNAc(b1-6)]Gal(b1-4)Glc
In short: as §1

[12] = molecular target: Fuc(a1-2)Gal(b1-3)GlcNAc(b1-3)[Neu5Ac(a2-6)Gal(b1-4)GlcNAc(b1-6)]Gal(b1-4)Glc
In short: as §1

[13] = molecular target: Fuc(a1-2)Gal(b1-3)GlcNAc6S
In short: as §1

[14] = molecular target: Fuc(a1-2)Gal(b1-3)[Fuc(a1-4)]GlcNAc
In short: as §1

[15] = molecular target: Fuc(a1-2)Gal(b1-3)[Fuc(a1-4)]GlcNAc(b1-2)Man(a1-3)[Fuc(a1-2)Gal(b1-3)[Fuc(a1-4)]GlcNAc(b1-2)Man(a1-3)]Man(b1-4)GlcNAc(b1-4)GlcNAc
In short: as §1

[16] = molecular target: Fuc(a1-2)Gal(b1-3)[Fuc(a1-4)]GlcNAc(b1-2)Man(a1-3)[Fuc(a1-2)Gal(b1-3)[Fuc(a1-4)]GlcNAc(b1-2)Man(a1-6)]Man(b1-4)GlcNAc(b1-4)[Fuc(a1-6)]GlcNAc(b1-4)[Fuc(a1-6)]GlcNAc
In short: as §1

[17] = molecular target: Fuc(a1-2)Gal(b1-3)[Fuc(a1-4)]GlcNAc(b1-3)[Fuc(a1-3)[Gal(b1-4)]GlcNAc(b1-6)]Gal(b1-4)Glc
In short: as §1

[18] = molecular target: Fuc(a1-2)Gal(b1-3)[Fuc(a1-4)]GlcNAc(b1-3)[Gal(b1-4)GlcNAc(b1-6)]Gal(b1-4)Glc
In short: as §1

Fuc(a1-2)Gal(b1-4)Glc = molecular target: Fuc(a1-2)Gal(b1-4)Glc
In short: as §1

Fuc(a1-2)Gal(b1-4)Glc6S = molecular target: Fuc(a1-2)Gal(b1-4)Glc6S
In short: as §1

Fuc(a1-2)Gal(b1-4)GlcNAc = molecular target: Fuc(a1-2)Gal(b1-4)GlcNAc
In short: as §1

[19] = molecular target: Fuc(a1-2)Gal(b1-4)GlcNAc(b1-2)Man
In short: as §1

[20] = molecular target: Fuc(a1-2)Gal(b1-4)GlcNAc(b1-2)Man(a1-3)[Fuc(a1-2)Gal(b1-4)GlcNAc(b1-2)Man(a1-6)]Man(b1-4)GlcNAc(b1-4)GlcNAc
In short: as §1

[21] = molecular target: Fuc(a1-2)Gal(b1-4)GlcNAc(b1-2)Man(a1-3)[Fuc(a1-2)Gal(b1-4)GlcNAc(b1-2)Man(a1-6)]Man(b1-4)GlcNAc(b1-4)[Fuc(a1-6)]GlcNAc
In short: as §1

[22] = molecular target: Fuc(a1-2)Gal(b1-4)GlcNAc(b1-2)[Fuc(a1-2)Gal(b1-4)GlcNAc(b1-4)]Man(a1-3)[Fuc(a1-2)Gal(b1-4)GlcNAc(b1-2)Man(a1-6)]Man(b1-4)GlcNAc(b1-4)GlcNAc
In short: as §1

[23] = molecular target: Fuc(a1-2)Gal(b1-4)GlcNAc(b1-3)Gal(b1-4)GlcNAc
In short: as §1

[24] = molecular target: Fuc(a1-2)Gal(b1-4)GlcNAc(b1-3)Gal(b1-4)GlcNAc(b1-2)Man(a1-3)[Fuc(a1-2)Gal(b1-4)GlcNAc(b1-3)Gal(b1-4)GlcNAc(b1-2)Man(a1-6)]Man(b1-4)GlcNAc(b1-4)GlcNAc
In short: as §1

B1: FliC (Clostridium difficile) (protein)
chain: MRVNTNVSALIANNQMGRNVNGQSKSMEKLSSGVRIKRAADDAAGLAISEKMRAQIKGLDQAGRNVQDGISVVQTAEGSLEETGNILQRMRTLSLQSANEINNTEEREKIADELTQLKDEIERISSSTEFNGKKLLDGTSSTIRLQVGASYGTNVSGTSNNNNEIKIQLVNTASIMASAGITTASIGSMKAGGTTGTDAAKTMVSSLDAALKSLNSSRAKLGAQQNRLESTQNNLNNTLENVTAAESRIRDTDVASEMVNLSKMNILVQASQSMLAQANQQPQGVLQLLG
- glycan array binding signal (z-score) (Fuc(a1-2)Gal): 0.477
- glycan array binding signal (z-score) (Fuc(a1-2)Gal(b1-3)GalNAc): -0.281
- glycan array binding signal (z-score) [1]: 0.883
- glycan array binding signal (z-score) [2]: -0.57
- glycan array binding signal (z-score) [3]: -0.239
- glycan array binding signal (z-score) [4]: 0.652
- glycan array binding signal (z-score) [5]: -0.174
- glycan array binding signal (z-score) (Fuc(a1-2)Gal(b1-3)GlcNAc): -0.085
- glycan array binding signal (z-score) [6]: 1.16
- glycan array binding signal (z-score) [7]: 0.279
- glycan array binding signal (z-score) [8]: -0.113
- glycan array binding signal (z-score) [9]: 0.089
- glycan array binding signal (z-score) [10]: 0.636
- glycan array binding signal (z-score) [11]: -0.799
- glycan array binding signal (z-score) [12]: -0.434
- glycan array binding signal (z-score) [13]: -0.565
- glycan array binding signal (z-score) [14]: -0.442
- glycan array binding signal (z-score) [15]: 0.721
- glycan array binding signal (z-score) [16]: 1.31
- glycan array binding signal (z-score) [17]: -0.396
- glycan array binding signal (z-score) [18]: -0.268
- glycan array binding signal (z-score) (Fuc(a1-2)Gal(b1-4)Glc): -0.639
- glycan array binding signal (z-score) (Fuc(a1-2)Gal(b1-4)Glc6S): -0.289
- glycan array binding signal (z-score) (Fuc(a1-2)Gal(b1-4)GlcNAc): 0.085
- glycan array binding signal (z-score) [19]: 0.651
- glycan array binding signal (z-score) [20]: 0.131
- glycan array binding signal (z-score) [21]: 1.2
- glycan array binding signal (z-score) [22]: -0.21
- glycan array binding signal (z-score) [23]: -0.355
- glycan array binding signal (z-score) [24]: 0.257
